Results are given in words; binding and its absence hold for the method and conditions named. Binding seen in cells or lysates may run through a third protein. Some entries that bind do so weakly or less than the wild type. For some assays here: Tags and fused reporters may be left off the sequences shown.

Amino acid sequences for entries named in this document (tags omitted).
UniProt P61202: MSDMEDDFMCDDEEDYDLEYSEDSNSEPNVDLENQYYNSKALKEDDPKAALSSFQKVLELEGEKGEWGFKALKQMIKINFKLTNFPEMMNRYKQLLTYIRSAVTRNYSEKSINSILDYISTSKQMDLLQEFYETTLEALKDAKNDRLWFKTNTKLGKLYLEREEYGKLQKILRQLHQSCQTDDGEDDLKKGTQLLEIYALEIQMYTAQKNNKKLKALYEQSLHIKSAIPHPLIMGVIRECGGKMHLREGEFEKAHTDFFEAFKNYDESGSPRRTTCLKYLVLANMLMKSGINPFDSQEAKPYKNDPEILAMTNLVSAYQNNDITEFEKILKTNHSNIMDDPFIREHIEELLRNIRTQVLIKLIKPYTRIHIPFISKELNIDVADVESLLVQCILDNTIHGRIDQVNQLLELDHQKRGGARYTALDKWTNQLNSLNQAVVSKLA
UniProt O09106: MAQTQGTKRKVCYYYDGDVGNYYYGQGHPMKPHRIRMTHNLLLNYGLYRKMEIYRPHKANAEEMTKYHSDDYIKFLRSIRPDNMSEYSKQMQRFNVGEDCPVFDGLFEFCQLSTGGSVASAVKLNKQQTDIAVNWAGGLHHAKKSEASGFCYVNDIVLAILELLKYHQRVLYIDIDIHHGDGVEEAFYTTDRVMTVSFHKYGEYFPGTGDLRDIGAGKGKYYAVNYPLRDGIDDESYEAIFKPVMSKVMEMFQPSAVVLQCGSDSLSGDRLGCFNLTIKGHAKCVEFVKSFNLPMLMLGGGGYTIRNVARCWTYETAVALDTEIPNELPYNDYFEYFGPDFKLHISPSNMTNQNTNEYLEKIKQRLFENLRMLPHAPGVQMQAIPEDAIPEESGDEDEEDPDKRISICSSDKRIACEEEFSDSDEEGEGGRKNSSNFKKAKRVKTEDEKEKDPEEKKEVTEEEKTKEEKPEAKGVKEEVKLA
UniProt P70288: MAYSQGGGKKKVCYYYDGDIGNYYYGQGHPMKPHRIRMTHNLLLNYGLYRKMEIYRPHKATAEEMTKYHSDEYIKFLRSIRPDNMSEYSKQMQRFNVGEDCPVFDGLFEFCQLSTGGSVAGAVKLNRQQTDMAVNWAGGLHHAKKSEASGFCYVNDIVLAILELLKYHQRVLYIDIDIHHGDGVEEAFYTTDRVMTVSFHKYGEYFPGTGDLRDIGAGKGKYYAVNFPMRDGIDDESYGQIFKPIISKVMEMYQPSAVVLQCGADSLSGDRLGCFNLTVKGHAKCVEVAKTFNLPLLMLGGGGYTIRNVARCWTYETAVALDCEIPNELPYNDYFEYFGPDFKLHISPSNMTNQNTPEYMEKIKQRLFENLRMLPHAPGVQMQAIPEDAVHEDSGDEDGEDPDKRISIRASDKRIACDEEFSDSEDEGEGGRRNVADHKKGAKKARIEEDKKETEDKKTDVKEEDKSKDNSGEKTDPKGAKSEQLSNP
UniProt P17918: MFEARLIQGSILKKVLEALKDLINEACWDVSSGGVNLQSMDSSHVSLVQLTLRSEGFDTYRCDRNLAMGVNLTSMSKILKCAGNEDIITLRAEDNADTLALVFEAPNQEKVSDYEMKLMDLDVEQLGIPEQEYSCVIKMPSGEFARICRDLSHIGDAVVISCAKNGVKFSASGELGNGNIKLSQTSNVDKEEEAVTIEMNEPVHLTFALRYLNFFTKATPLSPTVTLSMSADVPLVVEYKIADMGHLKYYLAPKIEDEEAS
UniProt Q6PR54: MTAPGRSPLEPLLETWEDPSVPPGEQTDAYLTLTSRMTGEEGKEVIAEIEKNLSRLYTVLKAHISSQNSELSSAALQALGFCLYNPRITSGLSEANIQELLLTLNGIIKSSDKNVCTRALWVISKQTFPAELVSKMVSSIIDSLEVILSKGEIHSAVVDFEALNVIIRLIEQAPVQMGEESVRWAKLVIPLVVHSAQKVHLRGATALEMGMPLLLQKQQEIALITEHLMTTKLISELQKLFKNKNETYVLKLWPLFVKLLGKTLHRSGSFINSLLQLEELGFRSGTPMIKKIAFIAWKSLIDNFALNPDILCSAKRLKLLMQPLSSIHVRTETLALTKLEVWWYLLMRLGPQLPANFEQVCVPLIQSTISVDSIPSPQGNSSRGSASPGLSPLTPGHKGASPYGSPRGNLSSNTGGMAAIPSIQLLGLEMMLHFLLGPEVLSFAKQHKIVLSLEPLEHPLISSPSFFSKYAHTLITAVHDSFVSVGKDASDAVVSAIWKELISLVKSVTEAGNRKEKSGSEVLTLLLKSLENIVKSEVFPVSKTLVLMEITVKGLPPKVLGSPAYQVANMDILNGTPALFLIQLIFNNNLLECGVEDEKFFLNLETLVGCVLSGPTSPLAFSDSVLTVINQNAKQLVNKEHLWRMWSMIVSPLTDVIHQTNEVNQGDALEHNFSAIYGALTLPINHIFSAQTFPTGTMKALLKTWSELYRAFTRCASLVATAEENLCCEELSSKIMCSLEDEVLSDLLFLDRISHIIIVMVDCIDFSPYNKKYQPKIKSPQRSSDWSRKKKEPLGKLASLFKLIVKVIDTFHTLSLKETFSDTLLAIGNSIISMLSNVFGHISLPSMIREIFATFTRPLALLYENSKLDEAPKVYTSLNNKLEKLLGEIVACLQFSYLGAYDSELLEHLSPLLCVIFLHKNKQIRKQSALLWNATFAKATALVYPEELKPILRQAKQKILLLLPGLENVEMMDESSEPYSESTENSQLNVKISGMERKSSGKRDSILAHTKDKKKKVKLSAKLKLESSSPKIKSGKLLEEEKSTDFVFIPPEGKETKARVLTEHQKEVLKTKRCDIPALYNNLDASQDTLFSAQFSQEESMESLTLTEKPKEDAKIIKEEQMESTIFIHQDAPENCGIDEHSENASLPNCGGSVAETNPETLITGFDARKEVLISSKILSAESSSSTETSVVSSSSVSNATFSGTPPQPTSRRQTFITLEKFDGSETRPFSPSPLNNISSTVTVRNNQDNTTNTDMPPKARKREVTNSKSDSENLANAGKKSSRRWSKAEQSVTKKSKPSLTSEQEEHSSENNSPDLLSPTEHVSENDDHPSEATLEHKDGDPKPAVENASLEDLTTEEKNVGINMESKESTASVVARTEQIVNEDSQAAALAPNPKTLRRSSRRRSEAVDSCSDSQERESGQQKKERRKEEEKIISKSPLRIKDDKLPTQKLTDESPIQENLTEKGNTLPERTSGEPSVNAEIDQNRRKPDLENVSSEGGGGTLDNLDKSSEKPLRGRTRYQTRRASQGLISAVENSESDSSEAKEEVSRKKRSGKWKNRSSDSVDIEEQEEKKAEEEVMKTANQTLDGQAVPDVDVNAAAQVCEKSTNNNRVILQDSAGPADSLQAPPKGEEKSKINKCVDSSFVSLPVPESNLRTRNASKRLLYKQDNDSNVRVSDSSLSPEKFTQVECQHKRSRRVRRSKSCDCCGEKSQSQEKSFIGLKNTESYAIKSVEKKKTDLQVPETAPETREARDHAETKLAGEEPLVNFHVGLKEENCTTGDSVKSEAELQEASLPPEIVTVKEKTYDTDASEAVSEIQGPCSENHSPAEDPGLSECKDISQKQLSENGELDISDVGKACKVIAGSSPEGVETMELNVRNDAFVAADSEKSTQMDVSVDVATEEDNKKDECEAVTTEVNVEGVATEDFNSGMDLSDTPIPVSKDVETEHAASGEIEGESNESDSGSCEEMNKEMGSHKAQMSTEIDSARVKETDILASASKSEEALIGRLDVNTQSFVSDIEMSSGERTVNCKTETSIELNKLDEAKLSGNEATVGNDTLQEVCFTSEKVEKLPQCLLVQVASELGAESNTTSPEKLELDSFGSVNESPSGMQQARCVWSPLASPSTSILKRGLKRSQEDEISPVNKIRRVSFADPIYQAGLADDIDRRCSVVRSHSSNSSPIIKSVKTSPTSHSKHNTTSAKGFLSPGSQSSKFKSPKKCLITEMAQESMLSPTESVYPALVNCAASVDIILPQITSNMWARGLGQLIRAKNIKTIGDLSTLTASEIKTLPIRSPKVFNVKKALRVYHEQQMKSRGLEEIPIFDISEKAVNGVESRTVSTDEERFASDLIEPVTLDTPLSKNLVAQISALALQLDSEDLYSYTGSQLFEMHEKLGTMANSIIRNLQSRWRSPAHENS

Assay [1] has as its target T1, Nanog (mouse) (UniProt Q80Z64).
T1 sequence: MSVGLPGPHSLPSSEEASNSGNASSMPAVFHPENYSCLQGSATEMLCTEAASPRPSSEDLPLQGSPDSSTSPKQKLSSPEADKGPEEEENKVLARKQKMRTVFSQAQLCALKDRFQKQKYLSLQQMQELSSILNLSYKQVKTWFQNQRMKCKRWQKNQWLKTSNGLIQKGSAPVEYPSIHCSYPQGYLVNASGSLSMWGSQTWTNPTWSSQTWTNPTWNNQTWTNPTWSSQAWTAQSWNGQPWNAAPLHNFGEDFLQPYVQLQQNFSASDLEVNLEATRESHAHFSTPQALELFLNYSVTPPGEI
In words: co-IP; Fig. 3f: HEK293T cells transfected with plasmids expressing Cops2 or Nanog, two days after transfection; lysis buffer 20 mM Tris-HCl pH 8.0, 137 mM NaCl, 10% glycerol, 1% NP-40, 2 mM EDTA; beads at 4 °C overnight; Western blot. (In general: Immunoblotting shows a protein as a band on a membrane.)

Assay [2] concerns the target T2, Flag-tagged WT Nanog (mouse) (UniProt Q80Z64).
T2 sequence: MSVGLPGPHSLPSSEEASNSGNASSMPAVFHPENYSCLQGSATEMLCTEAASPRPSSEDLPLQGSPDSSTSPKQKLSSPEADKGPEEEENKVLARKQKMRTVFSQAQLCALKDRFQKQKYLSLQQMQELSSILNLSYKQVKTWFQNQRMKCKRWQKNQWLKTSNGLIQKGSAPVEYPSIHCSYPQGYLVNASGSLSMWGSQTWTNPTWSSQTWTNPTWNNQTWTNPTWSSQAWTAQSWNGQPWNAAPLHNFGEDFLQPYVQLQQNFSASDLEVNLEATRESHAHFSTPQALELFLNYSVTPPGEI
In words: co-IP; Fig. 3g: Cops2 with Flag-tagged WT, Δα1, Δα2 and Δα3 Nanog; cells not told; Western blot.

Assay [3] concerns the target T1, Nanog (mouse). In words: co-IP; Supplementary Fig. S2c: association of Cops2 and of Cops5 with Nanog; cells, tags and antibody not shown.
For a further assay, the target named is Cops2 (mouse) (UniProt P61202). In words: co-IP; Supplementary Fig. S3: Cops2 with other repressive factors; cells, tags and antibodies not shown; the method is taken from the sentence before and from the methods section.

In the case of Cops2 (from UniProt P61202 1-443), the binding entry (with Nanog (mouse) [1]; in assay [2]; in the assay with Nanog (mouse) [3]) was “binds” throughout. As for Hdac1 (from UniProt O09106 1-482), the binding result with Cops2 (mouse) is listed as “binds”. Take Hdac2 (from UniProt P70288 1-488): the binding entry with Cops2 (mouse) is given as “binds”. With PCNA (from UniProt P17918 1-261), the binding entry with Cops2 (mouse) is “binds”. The same measure, in the same setting: in the case of Rif1 (from UniProt Q6PR54 1-2419) it was “binds”.

B1: Sin3a (protein, UniProt Q60520 1-1274)
chain: MKRRLDDQESPVYAAQQRRIPGSTEAFSHQHRVLAPAPPVYEAVSETMQSATGIQYSVAPNYQVSAVPQSSGSHGPAIAAVHSSHHHPTAVQPHGGQVVQSHAHPAPPVAPVQGQQQFQRLKVEDALSYLDQVKLQFGSQPQVYNDFLDIMKEFKSQSIDTPGVISRVSQLFKGHPDLIMGFNTFLPPGYKIEVQTNDMVNVTTPGQVHQIPTHGIQPQPQPPPQHPSQPSSQSAPTPAQPAPQPTAAKVSKPSQLQAHTPASQQTPPLPPYASPRSPPVQPHTPVTISLGTAPSLQNNQPVEFNHAINYVNKIKNRFQGQPDIYKAFLEILHTYQKEQRNAKEAGGNYTPALTEQEVYAQVARLFKNQEDLLSEFGQFLPDANSSVLLSKTTAEKVDSVRNDHGGTVKKPQLNNKPQRPSQNGCQIRRHSGTGATPPVKKKPKLMSLKESSMADASKHGVGTESLFFDKVRKALRSAEAYENFLRCLVIFNQEVISRAELVQLVSPFLGKFPELFNWFKNFLGYKESVHLESFPKERATEGIAMEIDYASCKRLGSSYRALPKSYQQPKCTGRTPLCKEVLNDTWVSFPSWSEDSTFVSSKKTQYEEHIYRCEDERFELDVVLETNLATIRVLEAIQKKLSRLSAEEQAKFRLDNTLGGTSEVIHRKALQRIYADKAADIIDGLRKNPSIAVPIVLKRLKMKEEEWREAQRGFNKVWREQNEKYYLKSLDHQGINFKQNDTKVLRSKSLLNEIESIYDERQEQATEENAGVPVGPHLSLAYEDKQILEDAAALIIHHVKRQTGIQKEDKYKIKQIMHHFIPDLLFAQRGDLSDVEEEEEEEMDVDEATGAPKKHNGVGGSPPKSKLLFSNTAAQKLRGMDEVYNLFYVNNNWYIFMRLHQILCLRLLRICSQAERQIEEENREREWEREVLGIKRDKSDSPAIQLRLKEPMDVDVEDYYPAFLDMVRSLLDGNIDSSQYEDSLREMFTIHAYIAFTMDKLIQSIVRQLQHIVSDEVCVQVTDLYLAENNNGATGGQLNSQTSRSLLESAYQRKAEQLMSDENCFKLMFIQSQGQVQLTVELLDTEEENSDDPVEAERWSDYVERYMSSDTTSPELREHLAQKPVFLPRNLRRIRKCQRGREQQEKEGKEGNSKKTMENVESLDKLECRFKLNSYKMVYVIKSEDYMYRRTALLRAHQSHERVSKRLHQRFQAWVDKWTKEHVPREMAAETSKWLMGEGLEGLVPCTTTCDTETLHFVSINKYRVKYGTVFKAP
As to B1, the binding entry with Cops2 (mouse) is “binds”.

Source of the values: PMC4881025.
